Experimental findings from article PMC12777490 are described below.

Amino acid sequences for entries named in this document (tags omitted).
UniProt Q16637: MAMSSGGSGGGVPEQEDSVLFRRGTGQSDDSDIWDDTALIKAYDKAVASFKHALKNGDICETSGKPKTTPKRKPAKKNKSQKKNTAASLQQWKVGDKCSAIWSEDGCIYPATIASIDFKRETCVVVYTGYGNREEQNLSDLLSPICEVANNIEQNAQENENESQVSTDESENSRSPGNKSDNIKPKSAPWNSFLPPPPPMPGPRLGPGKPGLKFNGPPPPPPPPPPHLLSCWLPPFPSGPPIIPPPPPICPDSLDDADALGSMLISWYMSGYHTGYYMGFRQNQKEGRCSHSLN

These are yes or no findings as the source states them, for the method shown. In cells and extracts the contact can be indirect. Some entries that bind do so weakly or less than the wild type.

The target in assay [1] is SBP-tagged SMN1 protein, Q16637. Briefly: pull-down; SBP-tagged SMN1 co-transfected with the other SMN constituent proteins without a tag in HEK293T; cleared lysate (TBS, 1% Triton X-100) incubated with Dynabeads M-280 Streptavidin for 30 min, washed, eluted by boiling in SDS sample buffer; SDS-PAGE, Strep-Tactin HRP blot and silver staining beside lysates expressing single proteins. The settings on record: remark: other sources report otherwise.

In a further assay the target is SBP-tagged SMN1 protein (UniProt Q16637). The description is as above.

B1: Gemin4, P57678 1-1058 (protein)
chain: MDLGPLNICEEMTILHGGFLLAEQLFHPKALAELTKSDWERVGRPIVEALREISSAAAHSQPFAWKKKALIIIWAKVLQPHPVTPSDTETRWQEDLFFSVGNMIPTINHTILFELLKSLEASGLFIQLLMALPTTICHAELERFLEHVTVDTSAEDVAFFLDVWWEVMKHKGHPQDPLLSQFSAMAHKYLPALDEFPHPPKRLRSDPDACPTMPLLAMLLRGLTQIQSRILGPGRKCCALANLADMLTVFALTEDDPQEVSATVYLDKLATVISVWNSDTQNPYHQQALAEKVKEAERDVSLTSLAKLPSETIFVGCEFLHHLLREWGEELQAVLRSSQGTSYDSYRLCDSLTSFSQNATLYLNRTSLSKEDRQVVSELAECVRDFLRKTSTVLKNRALEDITASIAMAVIQQKMDRHMEVCYIFASEKKWAFSDEWVACLGSNRALFRQPDLVLRLLETVIDVSTADRAIPESQIRQVIHLILECYADLSLPGKNKVLAGILRSWGRKGLSEKLLAYVEGFQEDLNTTFNQLTQSASEQGLAKAVASVARLVIVHPEVTVKKMCSLAVVNLGTHKFLAQILTAFPALRFVEEQGPNSSATFMVSCLKETVWMKFSTPKEEKQFLELLNCLMSPVKPQGIPVAALLEPDEVLKEFVLPFLRLDVEEVDLSLRIFIQTLEANACREEYWLQTCSPFPLLFSLCQLLDRFSKYWQLPKEKRCLSLDRKDLAIHILELLCEIVSANAETFSPDVWIKSLSWLHRKLEQLDWTVGLRLKSFFEGHFKCEVPATLFEICKLSEDEWTSQAHPGYGAGTGLLAWMECCCVSSGISERMLSLLVVDVGNPEEVRLFSKGFLVALVQVMPWCSPQEWQRLHQLTRRLLEKQLLHVPYSLEYIQFVPLLNLKPFAQELQLSVLFLRTFQFLCSHSCRDWLPLEGWNHVVKLLCGSLTRLLDSVRAIQAAGPWVQGPEQDLTQEALFVYTQVFCHALHIMAMLHPEVCEPLYVLALETLTCYETLSKTNPSVSSLLQRAHEQRFLKSIAEGIGPEERRQTLLQKMSSF
As for B1, in assay [1], the binding result was “binds”.

B2: Gemin8 (protein, UniProt Q9NWZ8 1-242)
chain: MAAVKASTSKATRPWYSHPVYARYWQHYHQAMAWMQSHHNAYRKAVESCFNLPWYLPSALLPQSSYDNEAAYPQSFYDHHVAWQDYPCSSSHFRRSGQHPRYSSRIQASTKEDQALSKEEEMETESDAEVECDLSNMEITEELRQYFAETERHREERRRQQQLDAERLDSYVNADHDLYCNTRRSVEAPTERPGERRQAEMKRLYGDSAAKIQAMEAAVQLSFDKHCDRKQPKYWPVIPLKF
Take B2: in the assay with SBP-tagged SMN1 protein, the binding entry is recorded as “binds”.
